# Results from patent US20170081363 (published 2017).
# Test: general procedure: solution-phase peptide synthesis; EDC, HOBT
# Conditions: whole synthesis, analytical HPLC, Zorbax Eclipse XDB-C18, UV detection @ 210 and 254 nm, scale 1 g
substance,measurement,value
protected Dmt-D-Arg-Phe-Lys-NH2 tetramer,purity (crude or final not stated),90%
